Data from the supplement of paper PMC12067093, “Discovery and optimisation of a covalent ligand for TRIM25 and its application to targeted protein ubiquitination” (Chemical Science, 2025).
This is one part of the list.

Sequences of proteins named here, by UniProt entry; tags and fusion partners are left off. A change or cut given only in a name is not applied to a line headed by its entry.
UniProt A0FGR8: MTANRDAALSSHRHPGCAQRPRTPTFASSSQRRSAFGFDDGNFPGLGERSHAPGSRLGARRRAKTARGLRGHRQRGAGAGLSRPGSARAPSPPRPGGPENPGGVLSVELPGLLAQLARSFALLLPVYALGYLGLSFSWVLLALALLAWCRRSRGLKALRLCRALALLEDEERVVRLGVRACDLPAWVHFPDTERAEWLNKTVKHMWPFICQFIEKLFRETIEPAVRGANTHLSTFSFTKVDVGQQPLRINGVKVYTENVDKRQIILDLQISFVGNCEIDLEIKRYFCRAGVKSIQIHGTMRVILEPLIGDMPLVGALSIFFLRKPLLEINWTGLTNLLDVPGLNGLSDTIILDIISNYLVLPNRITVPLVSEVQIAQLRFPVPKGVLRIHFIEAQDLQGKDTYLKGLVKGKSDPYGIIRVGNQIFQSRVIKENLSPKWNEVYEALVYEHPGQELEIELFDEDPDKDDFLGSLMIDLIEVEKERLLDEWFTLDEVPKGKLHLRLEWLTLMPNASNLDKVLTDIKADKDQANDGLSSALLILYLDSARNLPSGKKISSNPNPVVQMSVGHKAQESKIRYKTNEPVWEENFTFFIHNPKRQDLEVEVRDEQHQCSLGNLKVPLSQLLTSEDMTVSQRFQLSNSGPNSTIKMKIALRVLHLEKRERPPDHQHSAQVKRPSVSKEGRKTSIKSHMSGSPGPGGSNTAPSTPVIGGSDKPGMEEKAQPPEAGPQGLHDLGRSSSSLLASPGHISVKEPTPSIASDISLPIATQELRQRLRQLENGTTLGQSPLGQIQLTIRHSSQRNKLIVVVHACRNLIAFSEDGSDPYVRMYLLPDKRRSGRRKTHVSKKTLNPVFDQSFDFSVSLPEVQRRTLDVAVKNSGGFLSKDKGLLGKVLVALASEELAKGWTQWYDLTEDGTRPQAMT
UniProt Q15910, whole entry, looked up: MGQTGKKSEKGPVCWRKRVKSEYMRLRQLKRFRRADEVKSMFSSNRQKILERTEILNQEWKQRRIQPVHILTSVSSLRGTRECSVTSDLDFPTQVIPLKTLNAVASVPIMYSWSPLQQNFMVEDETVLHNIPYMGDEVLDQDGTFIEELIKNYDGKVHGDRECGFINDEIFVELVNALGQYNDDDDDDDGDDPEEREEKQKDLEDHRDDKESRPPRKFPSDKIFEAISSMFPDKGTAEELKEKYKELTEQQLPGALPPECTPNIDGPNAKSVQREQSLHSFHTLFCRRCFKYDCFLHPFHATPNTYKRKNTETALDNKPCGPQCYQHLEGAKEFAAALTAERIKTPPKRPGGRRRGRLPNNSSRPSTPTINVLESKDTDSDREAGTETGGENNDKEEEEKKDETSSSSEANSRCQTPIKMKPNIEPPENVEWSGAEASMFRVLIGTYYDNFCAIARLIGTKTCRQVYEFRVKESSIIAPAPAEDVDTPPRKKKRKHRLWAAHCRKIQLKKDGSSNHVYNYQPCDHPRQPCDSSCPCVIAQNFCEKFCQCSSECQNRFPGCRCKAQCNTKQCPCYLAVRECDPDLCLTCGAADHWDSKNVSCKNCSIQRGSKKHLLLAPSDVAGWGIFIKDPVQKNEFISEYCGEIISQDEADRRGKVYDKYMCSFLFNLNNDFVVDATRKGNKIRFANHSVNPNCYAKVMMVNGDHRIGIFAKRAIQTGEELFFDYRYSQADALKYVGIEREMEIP
UniProt P38117: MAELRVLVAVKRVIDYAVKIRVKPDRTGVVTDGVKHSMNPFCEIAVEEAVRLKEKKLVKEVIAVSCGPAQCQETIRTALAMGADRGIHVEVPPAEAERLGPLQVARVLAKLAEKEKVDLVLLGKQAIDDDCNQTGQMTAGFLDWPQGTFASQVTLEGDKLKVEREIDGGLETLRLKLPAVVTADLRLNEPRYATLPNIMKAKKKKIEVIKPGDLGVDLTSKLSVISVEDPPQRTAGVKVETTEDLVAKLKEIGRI
UniProt Q9Y3B2, whole entry, looked up: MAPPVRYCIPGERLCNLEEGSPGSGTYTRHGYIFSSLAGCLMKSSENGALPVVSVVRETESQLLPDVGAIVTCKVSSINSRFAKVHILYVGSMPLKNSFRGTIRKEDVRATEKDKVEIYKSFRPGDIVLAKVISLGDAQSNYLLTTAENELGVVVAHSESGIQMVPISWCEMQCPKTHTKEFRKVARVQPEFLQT
UniProt Q92889: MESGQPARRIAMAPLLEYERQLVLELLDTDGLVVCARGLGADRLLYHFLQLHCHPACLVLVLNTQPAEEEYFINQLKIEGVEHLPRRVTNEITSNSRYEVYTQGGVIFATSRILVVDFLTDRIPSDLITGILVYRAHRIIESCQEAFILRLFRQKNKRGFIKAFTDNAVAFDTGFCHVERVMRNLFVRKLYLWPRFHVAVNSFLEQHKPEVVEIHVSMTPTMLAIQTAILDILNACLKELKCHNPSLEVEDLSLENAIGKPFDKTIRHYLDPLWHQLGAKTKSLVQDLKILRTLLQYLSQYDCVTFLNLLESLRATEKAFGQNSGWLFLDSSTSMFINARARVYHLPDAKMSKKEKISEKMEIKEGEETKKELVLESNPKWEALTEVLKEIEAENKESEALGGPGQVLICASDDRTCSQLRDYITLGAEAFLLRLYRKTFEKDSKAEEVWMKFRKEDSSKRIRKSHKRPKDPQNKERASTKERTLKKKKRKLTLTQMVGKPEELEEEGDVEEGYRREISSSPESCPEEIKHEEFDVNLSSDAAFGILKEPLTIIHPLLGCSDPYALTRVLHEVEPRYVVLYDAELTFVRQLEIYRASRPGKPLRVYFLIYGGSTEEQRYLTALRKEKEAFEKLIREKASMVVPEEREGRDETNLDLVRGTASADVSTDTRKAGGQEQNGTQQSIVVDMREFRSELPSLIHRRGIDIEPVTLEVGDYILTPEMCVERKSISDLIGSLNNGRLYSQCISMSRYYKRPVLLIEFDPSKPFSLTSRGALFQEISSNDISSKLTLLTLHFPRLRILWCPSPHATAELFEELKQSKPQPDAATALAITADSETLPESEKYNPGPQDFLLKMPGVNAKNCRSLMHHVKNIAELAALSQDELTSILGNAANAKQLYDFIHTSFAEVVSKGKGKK
UniProt Q9UPT5: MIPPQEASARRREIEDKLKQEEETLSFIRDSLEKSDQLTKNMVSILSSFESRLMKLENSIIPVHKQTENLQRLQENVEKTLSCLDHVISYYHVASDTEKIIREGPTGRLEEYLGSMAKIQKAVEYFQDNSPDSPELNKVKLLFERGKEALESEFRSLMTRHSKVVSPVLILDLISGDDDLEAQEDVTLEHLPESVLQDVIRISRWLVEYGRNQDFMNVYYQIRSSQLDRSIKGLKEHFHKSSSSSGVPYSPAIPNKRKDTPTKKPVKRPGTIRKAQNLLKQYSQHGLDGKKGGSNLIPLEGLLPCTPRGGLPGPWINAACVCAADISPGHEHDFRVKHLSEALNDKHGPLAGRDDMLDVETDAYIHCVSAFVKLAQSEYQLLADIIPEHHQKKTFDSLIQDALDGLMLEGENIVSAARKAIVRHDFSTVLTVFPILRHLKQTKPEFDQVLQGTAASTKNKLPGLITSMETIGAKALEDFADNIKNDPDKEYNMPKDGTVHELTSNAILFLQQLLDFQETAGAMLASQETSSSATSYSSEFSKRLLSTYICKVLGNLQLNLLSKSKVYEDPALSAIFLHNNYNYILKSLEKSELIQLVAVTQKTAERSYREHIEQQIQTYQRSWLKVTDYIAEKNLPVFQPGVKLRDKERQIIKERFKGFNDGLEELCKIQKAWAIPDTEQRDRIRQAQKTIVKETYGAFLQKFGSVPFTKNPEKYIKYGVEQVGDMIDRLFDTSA
UniProt Q01469, whole entry, looked up: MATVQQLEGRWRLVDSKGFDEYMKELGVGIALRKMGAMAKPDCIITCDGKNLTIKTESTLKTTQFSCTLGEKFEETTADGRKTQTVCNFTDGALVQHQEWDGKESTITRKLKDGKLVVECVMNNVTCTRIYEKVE
UniProt Q96CS3: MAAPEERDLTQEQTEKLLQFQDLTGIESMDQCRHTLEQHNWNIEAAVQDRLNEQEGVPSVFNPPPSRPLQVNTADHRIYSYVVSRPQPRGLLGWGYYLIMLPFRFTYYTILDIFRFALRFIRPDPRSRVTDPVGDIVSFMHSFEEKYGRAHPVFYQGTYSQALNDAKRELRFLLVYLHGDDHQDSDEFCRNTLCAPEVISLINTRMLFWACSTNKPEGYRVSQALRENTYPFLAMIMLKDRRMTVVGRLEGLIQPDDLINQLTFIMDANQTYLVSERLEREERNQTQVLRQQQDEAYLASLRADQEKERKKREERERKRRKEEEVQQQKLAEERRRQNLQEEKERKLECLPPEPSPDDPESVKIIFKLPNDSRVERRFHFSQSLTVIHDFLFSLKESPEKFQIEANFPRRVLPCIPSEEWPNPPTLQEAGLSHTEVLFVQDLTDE
UniProt O95571: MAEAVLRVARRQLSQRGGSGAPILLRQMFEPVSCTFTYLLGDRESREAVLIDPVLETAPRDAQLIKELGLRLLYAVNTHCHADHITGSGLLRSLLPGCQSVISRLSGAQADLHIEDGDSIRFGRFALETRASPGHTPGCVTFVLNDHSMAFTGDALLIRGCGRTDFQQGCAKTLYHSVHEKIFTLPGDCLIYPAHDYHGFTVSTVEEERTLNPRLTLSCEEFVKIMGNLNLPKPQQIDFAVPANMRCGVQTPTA
UniProt Q9UNN5: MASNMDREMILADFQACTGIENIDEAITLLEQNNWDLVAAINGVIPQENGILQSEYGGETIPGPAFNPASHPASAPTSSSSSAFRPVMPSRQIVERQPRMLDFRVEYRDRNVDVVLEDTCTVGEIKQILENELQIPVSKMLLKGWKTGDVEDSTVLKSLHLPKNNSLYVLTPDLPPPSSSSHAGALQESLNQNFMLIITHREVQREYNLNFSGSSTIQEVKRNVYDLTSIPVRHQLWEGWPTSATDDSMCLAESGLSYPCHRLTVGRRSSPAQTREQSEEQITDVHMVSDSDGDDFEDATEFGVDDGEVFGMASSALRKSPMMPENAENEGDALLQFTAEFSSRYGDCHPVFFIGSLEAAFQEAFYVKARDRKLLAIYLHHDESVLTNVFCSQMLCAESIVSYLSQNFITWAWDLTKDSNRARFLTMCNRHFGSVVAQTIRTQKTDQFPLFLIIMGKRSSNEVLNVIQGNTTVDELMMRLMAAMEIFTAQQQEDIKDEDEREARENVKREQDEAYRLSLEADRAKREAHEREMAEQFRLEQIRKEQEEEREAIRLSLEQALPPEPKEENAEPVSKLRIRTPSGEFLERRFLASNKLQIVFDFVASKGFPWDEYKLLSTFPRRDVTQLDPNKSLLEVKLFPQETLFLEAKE
UniProt Q96EK7: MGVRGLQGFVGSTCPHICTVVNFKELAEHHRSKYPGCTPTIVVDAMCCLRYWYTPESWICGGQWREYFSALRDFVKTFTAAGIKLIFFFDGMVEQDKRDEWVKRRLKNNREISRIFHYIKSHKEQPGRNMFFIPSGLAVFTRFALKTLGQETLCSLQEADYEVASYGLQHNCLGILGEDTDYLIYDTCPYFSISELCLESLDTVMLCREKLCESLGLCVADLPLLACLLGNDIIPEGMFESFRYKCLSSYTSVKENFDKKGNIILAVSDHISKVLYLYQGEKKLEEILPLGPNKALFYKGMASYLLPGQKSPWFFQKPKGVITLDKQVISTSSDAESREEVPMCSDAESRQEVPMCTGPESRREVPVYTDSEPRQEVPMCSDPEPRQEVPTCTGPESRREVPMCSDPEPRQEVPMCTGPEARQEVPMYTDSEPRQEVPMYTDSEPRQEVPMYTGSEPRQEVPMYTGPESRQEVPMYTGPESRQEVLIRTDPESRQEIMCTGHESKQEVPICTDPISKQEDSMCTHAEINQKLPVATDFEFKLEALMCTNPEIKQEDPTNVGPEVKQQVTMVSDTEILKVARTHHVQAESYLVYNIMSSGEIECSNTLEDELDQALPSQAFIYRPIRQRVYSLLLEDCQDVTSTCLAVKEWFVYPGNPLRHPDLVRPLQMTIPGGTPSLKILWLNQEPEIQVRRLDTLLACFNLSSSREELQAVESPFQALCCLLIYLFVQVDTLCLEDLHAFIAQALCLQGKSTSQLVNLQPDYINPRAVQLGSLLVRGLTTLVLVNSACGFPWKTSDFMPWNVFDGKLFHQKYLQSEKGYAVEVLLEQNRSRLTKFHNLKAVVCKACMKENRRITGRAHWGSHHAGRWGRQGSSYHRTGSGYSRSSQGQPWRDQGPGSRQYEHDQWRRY
UniProt Q96B26, whole entry, looked up: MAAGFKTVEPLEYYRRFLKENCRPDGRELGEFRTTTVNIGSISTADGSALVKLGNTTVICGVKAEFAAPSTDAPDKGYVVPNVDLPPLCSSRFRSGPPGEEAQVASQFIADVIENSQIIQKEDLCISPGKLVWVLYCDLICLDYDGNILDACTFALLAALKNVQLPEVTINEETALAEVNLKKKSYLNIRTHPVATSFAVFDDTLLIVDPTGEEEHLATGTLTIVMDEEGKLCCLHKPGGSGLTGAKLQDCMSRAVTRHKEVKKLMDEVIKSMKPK

Compound: CC1Cc2ccccc2N1C(=O)C1CCCN(C1)C(=O)CCl (mixture of isomers) [TRIM25 ligand 11 (diastereomer mixture)]
Assay: probe-labelled cysteine peptide fold change vs DMSO (competition) (log2 fold change); higher = less target engagement (more negative = stronger competition)
Details: THP-1, incubation time: 4 h
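Further: competitive chemoproteomic profiling in live THP-1 cells with an iodoacetamide desthiobiotin (IA-DTB) probe, comparing probe-labelled peptide intensities in compound-treated cells against DMSO-treated controls.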

For “ESYT2_A0FGR8_210_HMWPFICQFIEK (UniProt A0FGR8)”, which “probe-labelled cysteine peptide fold change” value (10 µM) is on record?
Its value is 0.0844.

And the “probe-labelled cysteine peptide fold change” value (50 µM)?
Its value is 0.0497.

“EZH2_Q15910_588_ECDPDLCLTCGAADHWDSK (UniProt Q15910)” was tested. Which “probe-labelled cysteine peptide fold change” value (10 µM) did it give?
The value was -0.00347.

What about the “probe-labelled cysteine peptide fold change” value (50 µM) of the same target?
The value was 0.101.

Which “probe-labelled cysteine peptide fold change” value (10 µM) does the source give for “EZR_P15311_284_ILQLCMGNHELYMR (UniProt P15311)” here?
The value was -0.0383.

What about the “probe-labelled cysteine peptide fold change” value (50 µM) of the same target?
The value was -0.0492.

How did the “probe-labelled cysteine peptide fold change” value (10 µM) turn out when “EWSR1_Q01844_384_QCGVVK (UniProt Q01844)” was run?
Its value is -0.164.

What about the “probe-labelled cysteine peptide fold change” value (50 µM) of the same target?
The value was -0.267.

For “EXOSC9_Q06265_46_ISFGTDYGCCIVELGK (UniProt Q06265)”, which “probe-labelled cysteine peptide fold change” value (10 µM) is on record?
Its value is 0.0206.

What about the “probe-labelled cysteine peptide fold change” value (50 µM) of the same target?
Its value is 0.163.

Which results are given for “ETFB_P38117_42_HSMNPFCEIAVEEAVR (UniProt P38117)”?
probe-labelled cysteine peptide fold change (10 µM): 0.00576; probe-labelled cysteine peptide fold change (50 µM): -0.0353

How did the “probe-labelled cysteine peptide fold change” value (10 µM) turn out when “EXOSC1_Q9Y3B2_40_HGYIFSSLAGCLMK (UniProt Q9Y3B2)” was run?
The value was -0.15.

And the “probe-labelled cysteine peptide fold change” value (50 µM)?
Its value is -0.096.

Which results are given for “ERCC4_Q92889_803_ILWCPSPHATAELFEELK (UniProt Q92889)”?
probe-labelled cysteine peptide fold change (10 µM): -0.0243; probe-labelled cysteine peptide fold change (50 µM): 0.0315

“EXOC7_Q9UPT5_667_GFNDGLEELCK (UniProt Q9UPT5)” was tested. Which “probe-labelled cysteine peptide fold change” value (10 µM) did it give?
The value was -0.0337.

What about the “probe-labelled cysteine peptide fold change” value (50 µM) of the same target?
The value was -0.054.

Which results are given for “FABP5_Q01469_43+47_KMGAMAKPDCIITCDGK (UniProt Q01469)”?
probe-labelled cysteine peptide fold change (10 µM): -0.248; probe-labelled cysteine peptide fold change (50 µM): -0.398

Which results are given for “FAF2_Q96CS3_189_FLLVYLHGDDHQDSDEFCR (UniProt Q96CS3)”?
probe-labelled cysteine peptide fold change (10 µM): -0.0133; probe-labelled cysteine peptide fold change (50 µM): -0.0259

What does the source list for “ETHE1_O95571_34_QMFEPVSCTFTYLLGDR (UniProt O95571)”?
probe-labelled cysteine peptide fold change (10 µM): -0.138; probe-labelled cysteine peptide fold change (50 µM): 0.294

For “EXOSC2_Q13868_191_THFHDLPCGASVILGNNGFIWIYPTPEHKEEEAGGFIANLEPVSLADR (UniProt Q13868)”, which “probe-labelled cysteine peptide fold change” value (10 µM) is on record?
The value was 0.127.

What about the “probe-labelled cysteine peptide fold change” value (50 µM) of the same target?
The value was 0.0376.

For ERF_P50548_492_WSEDCR (UniProt P50548), which “probe-labelled cysteine peptide fold change” value (10 µM) is on record?
Its value is 0.189.

What about the “probe-labelled cysteine peptide fold change” value (50 µM) of the same target?
The value was 0.137.

“EXOSC1_Q9Y3B2_73_ETESQLLPDVGAIVTCK (UniProt Q9Y3B2)” was tested. Which “probe-labelled cysteine peptide fold change” value (10 µM) did it give?
Its value is -0.279.

And the “probe-labelled cysteine peptide fold change” value (50 µM)?
The value was -0.13.

How did the “probe-labelled cysteine peptide fold change” value (10 µM) turn out when “ESCO1_Q5FWF5_376_CILNGINSSAK (UniProt Q5FWF5)” was run?
The value was -0.122.

What about the “probe-labelled cysteine peptide fold change” value (50 µM) of the same target?
Its value is -0.215.

Which results are given for “FABP5_Q01469_43_MGAMAKPDCIITCDGK (UniProt Q01469)”?
probe-labelled cysteine peptide fold change (10 µM): -0.0792; probe-labelled cysteine peptide fold change (50 µM): -0.131

Which results are given for “ESF1_Q9H501_462_IYEDCDGLEFESSCSFIDLR (UniProt Q9H501)”?
probe-labelled cysteine peptide fold change (10 µM): 0.0286; probe-labelled cysteine peptide fold change (50 µM): 0.0891

“FABP5_Q01469_43+47_MGAMAKPDCIITCDGK (UniProt Q01469)” was tested. Which “probe-labelled cysteine peptide fold change” value (10 µM) did it give?
Its value is -0.0476.

What about the “probe-labelled cysteine peptide fold change” value (50 µM) of the same target?
Its value is -0.166.

With “EZH2_Q15910_294_YDCFLHPFHATPNTYKR (UniProt Q15910)” as the target, how does the “probe-labelled cysteine peptide fold change” value (10 µM) read?
Its value is -0.0687.

What about the “probe-labelled cysteine peptide fold change” value (50 µM) of the same target?
Its value is -0.0746.

For “ETS1_P14921_237_QEVVTPDNMCMGR (UniProt P14921)”, which “probe-labelled cysteine peptide fold change” value (10 µM) is on record?
Its value is -0.0223.

And the “probe-labelled cysteine peptide fold change” value (50 µM)?
Its value is -0.225.

With “FAF1_Q9UNN5_250+260_HQLWEGWPTSATDDSMCLAESGLSYPCHR (UniProt Q9UNN5)” as the target, how does the “probe-labelled cysteine peptide fold change” value (10 µM) read?
Its value is -0.487.

And the “probe-labelled cysteine peptide fold change” value (50 µM)?
The value was -0.516.

Which “probe-labelled cysteine peptide fold change” value (10 µM) does the source give for “ERLIN2_O94905_128_IHHELNQFCSVHTLQEVYIELFDQIDENLK (UniProt O94905)” here?
The value was 0.13.

And the “probe-labelled cysteine peptide fold change” value (50 µM)?
The value was -0.0608.

With “FAF1_Q9UNN5_120_NVDVVLEDTCTVGEIK (UniProt Q9UNN5)” as the target, how does the “probe-labelled cysteine peptide fold change” value (10 µM) read?
Its value is 0.0123.

And the “probe-labelled cysteine peptide fold change” value (50 µM)?
The value was 0.0932.

For “FAM120B_Q96EK7_499_QEIMCTGHESK (UniProt Q96EK7)”, which “probe-labelled cysteine peptide fold change” value (10 µM) is on record?
The value was 0.159.

And the “probe-labelled cysteine peptide fold change” value (50 µM)?
The value was -0.218.

Which results are given for “ERCC3_P19447_342_SGVIVLPCGAGK (UniProt P19447)”?
probe-labelled cysteine peptide fold change (10 µM): -0.0422; probe-labelled cysteine peptide fold change (50 µM): -0.00988

“EXOSC10_Q01780_555_IAEELPKEPQGIIACCNPVPPLVR (UniProt Q01780)” was tested. Which “probe-labelled cysteine peptide fold change” value (10 µM) did it give?
Its value is -0.0902.

What about the “probe-labelled cysteine peptide fold change” value (50 µM) of the same target?
Its value is -0.263.

For “FAH_P16930_396_KFLLDGDEVIITGYCQGDGYR (UniProt P16930)”, which “probe-labelled cysteine peptide fold change” value (10 µM) is on record?
The value was -0.194.

What about the “probe-labelled cysteine peptide fold change” value (50 µM) of the same target?
Its value is -0.0982.

With “FAM111A_Q96PZ2_36_EQQNNCSTSLMR (UniProt Q96PZ2)” as the target, how does the “probe-labelled cysteine peptide fold change” value (10 µM) read?
Its value is -0.0357.

And the “probe-labelled cysteine peptide fold change” value (50 µM)?
Its value is -0.0911.

Which “probe-labelled cysteine peptide fold change” value (10 µM) does the source give for “ETHE1_O95571_34_QMFEPVSCTFTYLLGDRESR (UniProt O95571)” here?
Its value is -0.517.

And the “probe-labelled cysteine peptide fold change” value (50 µM)?
Its value is -0.214.

“ETF1_P62495_127_KVNIDFEPFKPINTSLYLCDNK (UniProt P62495)” was tested. Which “probe-labelled cysteine peptide fold change” value (10 µM) did it give?
The value was 0.0876.

And the “probe-labelled cysteine peptide fold change” value (50 µM)?
The value was 0.00153.

“EXOSC8_Q96B26_125_EDLCISPGK (UniProt Q96B26)” was tested. Which “probe-labelled cysteine peptide fold change” value (10 µM) did it give?
The value was 0.411.

What about the “probe-labelled cysteine peptide fold change” value (50 µM) of the same target?
Its value is 0.358.

Which “probe-labelled cysteine peptide fold change” value (10 µM) does the source give for “FABP5_Q01469_43_KMGAMAKPDCIITCDGK (UniProt Q01469)” here?
Its value is -0.257.

And the “probe-labelled cysteine peptide fold change” value (50 µM)?
Its value is -0.212.

“EZH2_Q15910_695_FANHSVNPNCYAK (UniProt Q15910)” was tested. Which “probe-labelled cysteine peptide fold change” value (10 µM) did it give?
Its value is 0.0317.

What about the “probe-labelled cysteine peptide fold change” value (50 µM) of the same target?
The value was 0.038.

How did the “probe-labelled cysteine peptide fold change” value (10 µM) turn out when “FAM114A2_Q9NRY5_425_SQTLSQMTIVLCK (UniProt Q9NRY5)” was run?
Its value is -0.0489.

And the “probe-labelled cysteine peptide fold change” value (50 µM)?
The value was -0.0411.

“EXOSC4_Q9NPD3_97_SCEMGLQLR (UniProt Q9NPD3)” was tested. Which “probe-labelled cysteine peptide fold change” value (10 µM) did it give?
The value was -0.00406.

What about the “probe-labelled cysteine peptide fold change” value (50 µM) of the same target?
Its value is -0.0307.

With “EXOSC8_Q96B26_60_LGNTTVICGVK (UniProt Q96B26)” as the target, how does the “probe-labelled cysteine peptide fold change” value (10 µM) read?
The value was 0.0322.

What about the “probe-labelled cysteine peptide fold change” value (50 µM) of the same target?
The value was 0.0231.

With “FABP5_Q01469_47_KMGAMAKPDCIITCDGK (UniProt Q01469)” as the target, how does the “probe-labelled cysteine peptide fold change” value (10 µM) read?
Its value is -0.129.

And the “probe-labelled cysteine peptide fold change” value (50 µM)?
The value was -0.18.
